Assay results from patent US8629242B2, “Methods of inhibiting calcineurin with ApoE analogs” (Cognosci, Inc., priority 2007, dated 2014).
At least one peptide structure holds a part that was inferred or is arguable (an end, a ring closure or a residue). Where a SMILES comes first, the peptide text is derived from it. [ ]: non-standard residue; d: D form. Arg(NO2) = N=C(NCCC[C@H](N)C(=O)O)N[N+](=O)[O-]; Aib = CC(C)(N)C(=O)O

Tests used:
[1] = test system: animal model of human diseases; assay: Minimum effective dose in animal models; assay type: in vivo; details: model: EAE
[2] = test system: PLP-induced relapsing-remitting experimental autoimmune encephalomyelitis (EAE) model; assay: PLP-induced relapsing-remitting EAE model; assay type: in vivo; design: CSmax during relapse (mean ± SEM) / Area under curve (mean ± SEM): scale not given here; details: 4 mg/kg s.c.
Description: To further compare the activity of the various ApoE analogs, the efficacy of the analogs was assessed in a PLP-induced relapsing-remitting experimental autoimmune encephalomyelitis (EAE) model. […] The second dose was administered the next day followed by three times a week (M, W, F). Relapse rate represents the number of animals experiencing a relapse, while the CSmax indicates the maximal clinical score during relapse. Area under curve represents the area under the curve in a plot of clinical score vs. days post-inoculation (out to 60 days). […] The improvement in relapse rate and clinical score in the EAE model by ApoE analog treatment may be due, in part, to the remyelination-promoting effect of the ApoE analogs.

microglia cell line BV2 = assay: LPS-induced NO and TNF-α release in BV2 microglia; assay type: cell-based, murine; details: LPS 10 ng/ml, 24 hours
Description: FIG. 16. […] Series concentrations of ApoE analogs were added to culture medium together with LPS (10 ng/ml). 24 hours later, culture medium was collected for measurement of NO by Griess assay or TNF-α by ELISA. […] ApoE analogs (10 μM) were added to the cell medium of human macrophage U937 5 minutes prior to PMA+LPS treatment. The release of superoxide in culture medium was measured by Luminol assay kit (Calbiochem).
The murine microglia cell line BV2 was used as the first screening platform to compare the potency of ApoE analogs in anti-inflammatory activity. In response to LPS, BV2 produces amounts of reactive radical NO and inflammatory cytokines, such as TNF-α and IL-6. We stimulated the cells with LPS (10 ng/ml) in the presence of several concentrations of each of the ApoE analogs. We measured NO in medium by Griess assay and TNF-α by ELISA 24 hours after LPS stimulation of the cells. The IC50 value was calculated for each of the ApoE analogs.

CC(=O)N[C@@H](CC(C)C)C(=O)N[C@@H](CCCNC(=N)N)C(=O)N[C@H](C(=O)N[C@@H](CCCNC(=N)N)C(=O)N[C@@H](CC(C)C)C(=O)N[C@@H](C)C(=O)N[C@@H](CO)C(=O)NC(C)(C)C(=O)N[C@@H](CC(C)C)C(=O)N[C@@H](CCCNC(=N)N)C(=O)N[C@@H](CCCCN)C(=O)N[C@@H](CC(C)C)C(=O)N[C@@H](CCCNC(=N)N)C(=O)N[C@@H](CCCCN)C(=O)N[C@@H](CCCNC(=N)N[N+](=O)[O-])C(=O)N[C@@H](CC(C)C)C(=O)N[C@@H](CC(C)C)C(N)=O)C(C)C [COG 248, acetyl-LRVRLAS-Aib-LRKLRK(nitro-Arg)LL-amide] (Ac-LRVRLAS[Aib]LRKLRK[Arg(NO2)]LL-NH2)
Minimum Effective Dose (model) [1]: 1 mg/kg (EAE)
improvement in relapse rate and maximum clinical score during relapse [2]: significant improvement
Area under curve (mean ± SEM) ([2]; clinical score vs days post-inoculation, out to 60 days): 14.0 ± 2.2
CSmax during relapse (mean ± SEM) ([2]; maximal clinical score during relapse): 1.6 ± 0.2
Relapse Rate ([2]; number of animals experiencing a relapse): 4/14
activity in suppression of microglia activation (NO by Griess assay, TNF-α by ELISA) (microglia cell line BV2): clearly superior to that of COG 133
